# Laboratory results as given in the supplement of paper PMC9135407.
# Where “and” joins values, the source holds several entries; their conditions need not be identical. Equal values may be shown once. Where a name gives a salt, the structure may show the parent alone. ± gives the standard deviation of the averaged measurements. This is one part of the list. Part of the spread comes from offsets between plates or batches.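 Assay uses culture-activated primary human stellate myofibroblasts; lipid droplet recovery indicates inactivation. Measured: proportion of Hoechst-counted cells over a plate-specific Bodipy cutoff, duplicate wells, DMSO and nortriptyline as per-plate negative and positive controls. A hit scores, control-normalized, above the plate's top-tenth-percentile nortriptyline wells or ranks among its three best wells. Final well concentrations not reported.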
# System: primary human hepatic stellate cells (donor 1)
# Experiment: percent Bodipy-positive cells; higher = more lipid droplet accumulation
# Details: 48 h
# [1] = library stock concentration: 3.33 mM
# [2] = library stock concentration: 10 mM
# [3] = library stock concentration: 80 uM
# [4] = library stock concentration: 400 uM
# [5] = library stock concentration: 2 mM
# [6] = library stock concentration: 1 mM
structure (smiles),measurement,setting,value
CC(C)(C)NC[C@@H](O)COc1cccc2c1CCCC2=O [(+) -Levobunolol hydrochloride],percent Bodipy-positive cells,,15.08 ± 0.12%
CO[C@H]1/C=C/O[C@@]2(C)Oc3c(C)c(O)c4c(O)c(c(/C=N/N5CCN(C6CCCC6)CC5)c(O)c4c3C2=O)NC(=O)/C(C)=C\C=C\[C@H](C)[C@H](O)[C@@H](C)[C@@H](O)[C@@H](C)[C@H](OC(C)=O)[C@@H]1C [Rifapentine],percent Bodipy-positive cells,[1],8.92 ± 2%
same,percent Bodipy-positive cells,[2],11.9 ± 6.9%
N=C(N)NC(=N)NCCc1ccccc1 [Phenformin HCl],percent Bodipy-positive cells,[1],18.2 ± 14%
same,percent Bodipy-positive cells,[2],10.7 ± 1.5%
N=C(N)NC(=N)NCCc1ccccc1 [Phenformin hydrochloride],percent Bodipy-positive cells,,28 ± 2%
same,percent Bodipy-positive cells,library stock concentration: 8.3 mM,15.9 ± 6.7%
O=c1[nH]c(C2CCCN2)nc2c1oc1ccc(Cl)cc12 (stereo not given),percent Bodipy-positive cells,[3],9.02 ± 3.4%
same,percent Bodipy-positive cells,[4],11.9 ± 2.5%
same,percent Bodipy-positive cells,[5],4.28 ± 1.4%
same,percent Bodipy-positive cells,[2],8.92 ± 1%
CCCCCCCCCCCCC/C=C/[C@@H](O)[C@H](CO)NC(=O)CCCCCCC [C-8 Ceramide],percent Bodipy-positive cells,[6],9.16 ± 0.88%
CCCCCCCCCCCCC/C=C/[C@@H](O)[C@H](CO)NC(=O)CCCCCCC [C8 Ceramide],percent Bodipy-positive cells,[6],17.7 ± 20%
CN1CCC(=C2c3ccccc3C=Cc3ccccc32)CC1 [Cyproheptadine],percent Bodipy-positive cells,library stock concentration: 7 mM,44.5 ± 15%
CN1CCC(=C2c3ccccc3C=Cc3ccccc32)CC1,percent Bodipy-positive cells,[2],79.2 ± 8.3%
CN1CCC(=C2c3ccccc3C=Cc3ccccc32)CC1 [Cyproheptadine HCl],percent Bodipy-positive cells,[1],56.9 ± 1.9%
same,percent Bodipy-positive cells,[2],75.9 ± 3.3%
CN1CCC(=C2c3ccccc3C=Cc3ccccc32)CC1 [Cyproheptadine hydrochloride],percent Bodipy-positive cells,library stock concentration: 6.2 mM,80.6 ± 14%
O=C(O)CCC/C=C\C[C@@H]1[C@@H](/C=C/[C@@H](O)C2Cc3ccccc3C2)[C@@H](F)C[C@@H]1O,percent Bodipy-positive cells,[6],18 ± 6.3%
NCC(O)C1CCCCCCC1 (stereo not given) [2-Cyclooctyl-2-hydroxyethylamine hydrochloride],percent Bodipy-positive cells,[2],82.8 ± 8.6%
CCCCC[C@H](O)/C=C/[C@@H]1[C@@H](CCCCCCC(=O)O)[C@H](O)C[C@H]1O [Prostaglandin F1.beta.],percent Bodipy-positive cells,[6],14.9 ± 1.3%
CN1CCN(CC/C=C2/c3ccccc3Sc3ccc(S(=O)(=O)N(C)C)cc32)CC1 [Thiothixene],percent Bodipy-positive cells,[2],66.8 ± 3.2%
CN1CCN(CC/C=C2/c3ccccc3Sc3ccc(S(=O)(=O)N(C)C)cc32)CC1,percent Bodipy-positive cells,[2],92.1 ± 1.1%
CNC1CCCN(c2c(F)cc3c(=O)c(C(=O)O)cn(C4CC4)c3c2OC)C1 (stereo not given) [Balofloxacin],percent Bodipy-positive cells,[1],14.5 ± 2.2%
same,percent Bodipy-positive cells,[2],12.27 ± 0.064%
C[C@H]1O[C@H](O[C@H]2[C@H](O)[C@@H](O)[C@@H](O[C@H]3[C@H](O)[C@@H](O)C(O)O[C@@H]3CO)O[C@@H]2CO)[C@H](O)[C@@H](O)[C@@H]1N[C@H]1C=C(CO)[C@@H](O)[C@H](O)[C@H]1O (stereo not given in full) [Acarbose],percent Bodipy-positive cells,library stock concentration: 3.1 mM,6.77 ± 2.1%
same,percent Bodipy-positive cells,[1],7.14 ± 3.1%
same,percent Bodipy-positive cells,[2],12.6% and 4.59%
C[C@H]1O[C@H](O[C@H]2[C@H](O)[C@@H](O)[C@@H](O[C@H]3[C@H](O)[C@@H](O)C(O)O[C@@H]3CO)O[C@@H]2CO)[C@H](O)[C@@H](O)[C@@H]1N[C@H]1C=C(CO)[C@@H](O)[C@H](O)[C@H]1O (stereo not given in full),percent Bodipy-positive cells,[2],15.8 ± 6.7%
C[C@@H](Oc1ccc2[nH]nc(/C=C/c3cnn(CCO)c3)c2c1)c1c(Cl)cncc1Cl,percent Bodipy-positive cells,[3],9.05 ± 1.4%
same,percent Bodipy-positive cells,[4],11.6 ± 2.8%
same,percent Bodipy-positive cells,[5],13.3 ± 4%
same,percent Bodipy-positive cells,[2],46.4 ± 8.5%
CC(C)(CO)[C@@H](O)C(=O)NCCC(=O)NCCSSCCNC(=O)CCNC(=O)[C@H](O)C(C)(C)CO,percent Bodipy-positive cells,[2],21 ± 13%
O=C(O)c1cn(-c2ccc(F)cc2)c2cc(N3CCNCC3)c(F)cc2c1=O [Sarafloxacin hydrochloride],percent Bodipy-positive cells,library stock concentration: 4.7 mM,9.81 ± 0.9%
same,percent Bodipy-positive cells,[2],39.3 ± 5.4%
O=C(O)c1cn(-c2ccc(F)cc2)c2cc(N3CCNCC3)c(F)cc2c1=O [Sarafloxacin HCl],percent Bodipy-positive cells,library stock concentration: 5.2 mM,8.13 ± 0.57%
COc1cccc(/C=N/N=C/c2cccc(OC)c2)c1,percent Bodipy-positive cells,[2],5.66 ± 1.7%
C[C@@H](NCc1cc(Br)cc2[nH]c(=O)c(=O)[nH]c12)P(=O)(O)O,percent Bodipy-positive cells,[2],7 ± 2.9%
C[C@@H]1C[C@H]2[C@@H]3C[C@H](F)C4=CC(=O)C=C[C@]4(C)[C@@]3(F)[C@@H](O)C[C@]2(C)[C@@]1(O)C(=O)CO [Flumethasone],percent Bodipy-positive cells,,8.75 ± 2.8%
same,percent Bodipy-positive cells,[1],8.61 ± 0.93%
same,percent Bodipy-positive cells,library stock concentration: 4.9 mM,3.85 ± 0.64%
same,percent Bodipy-positive cells,[2],23.8 ± 3.9%
O=C(NC[C@H]1CN(c2ccc(N3CCOCC3=O)cc2)C(=O)O1)c1ccc(Cl)s1 [Rivaroxaban],percent Bodipy-positive cells,[1],5.98 ± 0.39%
same,percent Bodipy-positive cells,[2],17.4 ± 11%
CC(C)c1nn(-c2c(Cl)cccc2Cl)c2nc(Cc3ccc(OCCO)cc3)[nH]c(=O)c12,percent Bodipy-positive cells,[3],41.8 ± 8.6%
same,percent Bodipy-positive cells,[4],44.4 ± 6.2%
same,percent Bodipy-positive cells,[5],42.4 ± 0.96%
same,percent Bodipy-positive cells,[2],40.1 ± 1.2%
O=C(O)Cc1ccc(-c2ccccc2)cc1 [Felbinac],percent Bodipy-positive cells,,9.38 ± 1.2%
COc1cc(N2CCC(N3CCN(C)CC3)CC2)ccc1Nc1ncc(Cl)c(-c2c[nH]c3ccccc23)n1,percent Bodipy-positive cells,[3],15.9 ± 4.6%
same,percent Bodipy-positive cells,[4],30.9 ± 4.7%
Cc1cc2c(cc1CC(=O)c1sccc1S(=O)(=O)Nc1onc(C)c1Cl)OCO2 [Sitaxentan sodium],percent Bodipy-positive cells,[1],6.31 ± 3.5%
same,percent Bodipy-positive cells,[2],13.8 ± 3.8%
COc1ccc(CN2C(=O)C(=O)c3cc(OC(F)(F)F)ccc32)cc1,percent Bodipy-positive cells,[2],29.2 ± 2.5%
CCOC(=O)c1cnc2ccc(-c3cncc(NS(=O)(=O)c4ccccc4)c3)cn12,percent Bodipy-positive cells,[2],97.4 ± 2.6%
Cc1nnc(C(=O)NC(C)(C)c2nc(C(=O)NCc3ccc(F)cc3)c(O)c(=O)n2C)o1 [Raltegravir (MK-0518)],percent Bodipy-positive cells,[1],6.84 ± 0.21%
same,percent Bodipy-positive cells,[2],11.2 ± 1.1%
NCCC[C@](N)(C(=O)O)C(F)F (racemic) [DL-alpha-Difluoromethylornithine hydrochloride],percent Bodipy-positive cells,[2],40.9 ± 32%
CC(=O)OCC(=O)[C@@]1(O)[C@@H](C)C[C@H]2[C@@H]3CCC4=CC(=O)C=C[C@]4(C)[C@@]3(F)[C@@H](O)C[C@@]21C,percent Bodipy-positive cells,[2],20.7 ± 4.6%

# Some of the entries so far, tab-delimited.
structure (smiles)	measurement	setting	value
COc1cccc(/C=N/N=C/c2cccc(OC)c2)c1	percent Bodipy-positive cells	[2]	5.66 ± 1.7%
C[C@@H](NCc1cc(Br)cc2[nH]c(=O)c(=O)[nH]c12)P(=O)(O)O	percent Bodipy-positive cells	[2]	7 ± 2.9%
C[C@@H]1C[C@H]2[C@@H]3C[C@H](F)C4=CC(=O)C=C[C@]4(C)[C@@]3(F)[C@@H](O)C[C@]2(C)[C@@]1(O)C(=O)CO [Flumethasone]	percent Bodipy-positive cells		8.75 ± 2.8%
same	percent Bodipy-positive cells	[1]	8.61 ± 0.93%
same	percent Bodipy-positive cells	library stock concentration: 4.9 mM	3.85 ± 0.64%
same	percent Bodipy-positive cells	[2]	23.8 ± 3.9%
O=C(NC[C@H]1CN(c2ccc(N3CCOCC3=O)cc2)C(=O)O1)c1ccc(Cl)s1 [Rivaroxaban]	percent Bodipy-positive cells	[1]	5.98 ± 0.39%
same	percent Bodipy-positive cells	[2]	17.4 ± 11%
CC(C)c1nn(-c2c(Cl)cccc2Cl)c2nc(Cc3ccc(OCCO)cc3)[nH]c(=O)c12	percent Bodipy-positive cells	[3]	41.8 ± 8.6%
same	percent Bodipy-positive cells	[4]	44.4 ± 6.2%
same	percent Bodipy-positive cells	[5]	42.4 ± 0.96%
same	percent Bodipy-positive cells	[2]	40.1 ± 1.2%
O=C(O)Cc1ccc(-c2ccccc2)cc1 [Felbinac]	percent Bodipy-positive cells		9.38 ± 1.2%

# A different layout for part of the listing above.
structure (smiles)	measurement	setting	value
N=C(N)NC(=N)NCCc1ccccc1 [Phenformin HCl]	percent Bodipy-positive cells	[2]	10.7 ± 1.5%
C[C@@H](Oc1ccc2[nH]nc(/C=C/c3cnn(CCO)c3)c2c1)c1c(Cl)cncc1Cl	percent Bodipy-positive cells	[5]	13.3 ± 4%
